Source: US20210340278A1
No constants are given. Whether binding was seen depends on the method and setting. For part of these data: Binding seen in cells or lysates may run through a third protein. Some results given as binding are weak or reduced against the parent protein; the word gives no strength.

The chains behind the UniProt entries cited, without tags or fusion partners. Residues count along the entry.
UniProt Q15363, residues 21-201: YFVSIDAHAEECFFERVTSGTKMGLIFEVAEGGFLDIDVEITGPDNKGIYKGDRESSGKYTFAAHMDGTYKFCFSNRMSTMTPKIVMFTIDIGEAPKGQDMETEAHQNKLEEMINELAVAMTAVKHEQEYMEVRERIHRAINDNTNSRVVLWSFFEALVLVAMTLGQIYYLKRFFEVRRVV

T1: Anterior gradient 2 (AGR2), human, wild type (human), O95994
T1 chain: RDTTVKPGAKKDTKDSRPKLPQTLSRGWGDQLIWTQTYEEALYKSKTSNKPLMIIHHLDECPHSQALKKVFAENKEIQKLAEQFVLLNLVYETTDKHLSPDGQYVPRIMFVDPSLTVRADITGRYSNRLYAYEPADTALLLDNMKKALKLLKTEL

B1: Anterior gradient 2 (AGR2), human, wild type, O95994 21-175 (protein)
chain: RDTTVKPGAKKDTKDSRPKLPQTLSRGWGDQLIWTQTYEEALYKSKTSNKPLMIIHHLDECPHSQALKKVFAENKEIQKLAEQFVLLNLVYETTDKHLSPDGQYVPRIMFVDPSLTVRADITGRYSNRLYAYEPADTALLLDNMKKALKLLKTEL

How the values were obtained:
TMED2, human (human) [1] = molecular target: TMED2, human (human) (UniProt Q15363); experiment: co-immunoprecipitation from HEK293T cells, control or treated with tunicamycin
TMED2, human (human) [2] = molecular target: TMED2, human (human) (UniProt Q15363); experiment: co-immunoprecipitation, AGR2 WT compared with AGR2 AA
[3] = molecular target: T1, Anterior gradient 2 (AGR2), human, wild …; experiment: DSP chemical cross-linking in cells, Western blot under non-reducing or reducing conditions, AGR2 siRNA control; conditions: remark: other sources report otherwise

Molecule | binding (TMED2, human (human) [1]) | binding (TMED2, human (human) [2]) | binding [3]
Anterior gradient 2 (AGR2), human, wild type (from UniProt O95994 21-175) | binds | binds | –
B1 | – | – | binds
